Assay results reported in patent EP4688000A1 (dated 2026).
These are yes or no findings as the source states them, for the method shown. Some entries that bind do so weakly or less than the wild type.

Protein sequences, listed by entry. Tags and fused reporters are not part of them. Lines headed by an entry give the natural chain unless they say otherwise; changes in a name come on top.
UniProt P16144: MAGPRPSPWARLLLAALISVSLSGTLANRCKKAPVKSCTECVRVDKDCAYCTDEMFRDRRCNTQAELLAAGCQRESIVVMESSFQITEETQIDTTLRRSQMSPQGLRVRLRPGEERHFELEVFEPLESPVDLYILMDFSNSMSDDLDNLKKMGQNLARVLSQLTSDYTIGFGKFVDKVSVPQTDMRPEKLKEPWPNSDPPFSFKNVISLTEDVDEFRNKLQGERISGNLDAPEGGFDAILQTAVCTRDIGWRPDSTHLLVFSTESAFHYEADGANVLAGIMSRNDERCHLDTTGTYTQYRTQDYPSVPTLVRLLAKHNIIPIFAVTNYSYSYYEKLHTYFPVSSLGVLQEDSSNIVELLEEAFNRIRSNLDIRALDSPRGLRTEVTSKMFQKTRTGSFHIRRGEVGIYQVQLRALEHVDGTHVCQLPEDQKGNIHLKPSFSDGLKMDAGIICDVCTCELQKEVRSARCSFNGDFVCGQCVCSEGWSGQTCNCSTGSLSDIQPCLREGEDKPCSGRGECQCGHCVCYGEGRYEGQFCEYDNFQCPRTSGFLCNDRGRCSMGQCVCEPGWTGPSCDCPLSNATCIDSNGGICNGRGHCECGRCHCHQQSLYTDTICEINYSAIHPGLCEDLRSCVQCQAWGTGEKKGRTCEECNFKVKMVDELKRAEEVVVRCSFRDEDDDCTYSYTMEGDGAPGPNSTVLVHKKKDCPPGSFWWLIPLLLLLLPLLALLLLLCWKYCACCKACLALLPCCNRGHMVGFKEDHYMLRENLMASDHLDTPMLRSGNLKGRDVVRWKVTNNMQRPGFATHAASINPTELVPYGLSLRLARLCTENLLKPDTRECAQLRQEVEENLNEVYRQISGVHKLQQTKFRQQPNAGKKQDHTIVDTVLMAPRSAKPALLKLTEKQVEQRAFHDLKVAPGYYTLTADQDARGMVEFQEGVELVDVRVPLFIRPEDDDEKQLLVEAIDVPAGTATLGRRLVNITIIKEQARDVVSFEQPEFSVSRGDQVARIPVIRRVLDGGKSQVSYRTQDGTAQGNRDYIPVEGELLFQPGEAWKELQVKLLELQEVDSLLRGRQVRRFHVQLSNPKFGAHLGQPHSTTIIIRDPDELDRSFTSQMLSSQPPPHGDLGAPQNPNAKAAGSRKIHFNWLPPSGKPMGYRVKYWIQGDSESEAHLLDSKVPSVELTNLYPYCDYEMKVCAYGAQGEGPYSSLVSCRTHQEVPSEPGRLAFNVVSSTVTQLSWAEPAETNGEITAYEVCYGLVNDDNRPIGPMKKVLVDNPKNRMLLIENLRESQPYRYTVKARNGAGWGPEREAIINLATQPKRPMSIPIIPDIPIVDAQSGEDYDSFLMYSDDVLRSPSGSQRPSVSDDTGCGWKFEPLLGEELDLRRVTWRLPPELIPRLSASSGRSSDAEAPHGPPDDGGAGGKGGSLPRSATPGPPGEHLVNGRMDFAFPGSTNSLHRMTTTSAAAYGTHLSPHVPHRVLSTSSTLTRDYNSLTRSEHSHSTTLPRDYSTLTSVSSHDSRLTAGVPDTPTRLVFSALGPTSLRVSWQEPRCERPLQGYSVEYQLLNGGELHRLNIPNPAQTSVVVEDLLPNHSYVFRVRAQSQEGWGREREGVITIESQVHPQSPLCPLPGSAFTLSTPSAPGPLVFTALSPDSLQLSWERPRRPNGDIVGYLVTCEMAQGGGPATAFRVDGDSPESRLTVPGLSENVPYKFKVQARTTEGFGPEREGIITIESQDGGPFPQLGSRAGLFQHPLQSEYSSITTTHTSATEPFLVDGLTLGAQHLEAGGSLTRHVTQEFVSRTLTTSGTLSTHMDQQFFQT
UniProt P23229: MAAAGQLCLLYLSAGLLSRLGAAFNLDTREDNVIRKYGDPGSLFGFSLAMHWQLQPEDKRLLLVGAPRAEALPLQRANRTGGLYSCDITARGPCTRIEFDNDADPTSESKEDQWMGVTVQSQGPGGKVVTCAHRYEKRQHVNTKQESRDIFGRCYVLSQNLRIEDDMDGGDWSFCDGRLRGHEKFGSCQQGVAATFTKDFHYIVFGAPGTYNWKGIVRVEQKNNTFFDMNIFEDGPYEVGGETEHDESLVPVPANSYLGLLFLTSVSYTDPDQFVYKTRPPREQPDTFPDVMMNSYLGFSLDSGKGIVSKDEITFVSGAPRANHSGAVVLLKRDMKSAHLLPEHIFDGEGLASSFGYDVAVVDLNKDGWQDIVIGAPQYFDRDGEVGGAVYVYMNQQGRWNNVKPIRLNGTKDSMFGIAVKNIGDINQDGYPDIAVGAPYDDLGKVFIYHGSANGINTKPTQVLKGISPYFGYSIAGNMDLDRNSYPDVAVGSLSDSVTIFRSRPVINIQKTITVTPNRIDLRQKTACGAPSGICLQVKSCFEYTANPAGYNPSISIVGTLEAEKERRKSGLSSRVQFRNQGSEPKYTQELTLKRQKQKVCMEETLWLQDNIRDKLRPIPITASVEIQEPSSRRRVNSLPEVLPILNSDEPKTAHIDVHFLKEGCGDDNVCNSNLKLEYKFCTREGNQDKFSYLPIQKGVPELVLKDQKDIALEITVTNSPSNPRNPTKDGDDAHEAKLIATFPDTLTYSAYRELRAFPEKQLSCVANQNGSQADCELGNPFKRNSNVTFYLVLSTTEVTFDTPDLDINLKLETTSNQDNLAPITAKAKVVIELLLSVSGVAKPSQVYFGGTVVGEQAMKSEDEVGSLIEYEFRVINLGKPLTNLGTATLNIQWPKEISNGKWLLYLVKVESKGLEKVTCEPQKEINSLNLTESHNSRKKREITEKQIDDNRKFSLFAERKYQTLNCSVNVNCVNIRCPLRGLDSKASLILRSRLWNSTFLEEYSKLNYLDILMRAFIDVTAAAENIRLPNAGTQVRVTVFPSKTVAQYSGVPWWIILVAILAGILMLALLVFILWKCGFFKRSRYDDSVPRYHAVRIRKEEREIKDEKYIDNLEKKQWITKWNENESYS

Key:
[1] = molecular target: T1, human ITGB4 (integrin α6β4) on cells: HCT116, H292, SW620 and other tumor cells, CHO-S-human ITGA6B4-#5 (human) (UniProt P16144+P23229); test: flow cytometry on cells (Fig. 4)
[2] = molecular target: T1, human ITGB4 (integrin α6β4) on cells: HCT116, H292, SW620 and other tumor cells, CHO-S-human ITGA6B4-#5 (human); test: flow cytometry on HCT116, H292 and CHO-S-human ITGA6B4-#5 cells
[3] = molecular target: recombinant human integrin alpha 6 beta 4 protein (ITGα6β4, Sino #CT069-H2508H) (human) (UniProt P23229+P16144); test: Octet BLI (antibody on AHC sensor) and ELISA on coated recombinant human ITGα6β4

binding [1]: binds
binding [2]: binds
binding [3]: binds
B1: anti-ITGB4 antibody 008 (parental clone) (antibody, V domains shown)
VH: QVQLKQSGPSLVQPSQSLSITCTVSGFSLTSYGVHWFRQSPGKGLEWLGVIWRGGNTDYNAAFMSRLSITKDNSKSQVFFKMNSLQPDDTAIYYCVKNYRFGGSAYWGQGTLVTVSA
VL: DIQMTQTTSSLSASLGDRVTISCRASQDISNHLNWYQQKPDGTVKLLIYYTSTLHSGVPSRFSGSGSGTDYSLTISNLEPEDIATYYCQQDLNLPWTFGGGTKLEIK
notes: In the assays it was captured on anti-human IgG Fc sensors and detected with anti-human IgG, so the tested form carries a human Fc; also called 008 clone
